No constants are given. Whether binding was seen depends on the method and setting. Binding calls can cover weak binding; strength is not graded here.
Target: RbcL8 core complex of Rubisco (Synechococcus elongatus PCC 7942)
Experiment: turbidity assay; M58red (0.75 μM) and RbcL8 (0.25 μM) at 50 mM KCl in the presence of 0.5 μM and 1.0 μM Raf1 dimer; both purified
Details: remark: other sources report otherwise

B1: Rubisco assembly chaperone Raf1, Q31Q05 1-356 (protein)
chain: MREFTPTTLSEEERQELLGQLRRKEGRWLAWARACQTLLKNGLNPQTLFEATGFEPIQQNQITVAMQVYDSILRQDPPAHVRETYQEWGSDLLYELRELDQEQRSLCAQLALERKLDADQIREVAKATKDFCRLPKQPENFDRHPGDAVAHQCWRLAQERTDLTERSRLIARGLQFAQSAGARALIEALLLDLSGVPSRKPPMLPIYRLETEEDLPRLLPFAGTLPLSSSQIEAIAAVEAEGPFGLVSSPQGQQWLALPGWQAILTAEDPIACLEQIDRLPNAPEGPTEAVVLVVDRADRDWDADHFFLVEQAEGARIQWSPSAIAAPILGRLVLILRPKRVLDEAAIATPWQFEE
Question: How did the binding turn out when B1 was run?
Answer: Its binding is “binds”.

From PMC8580825, “Scaffolding protein CcmM directs multiprotein phase separation in β-carboxysome biogenesis” (Nature Structural & Molecular Biology, 2021)
